PubChem BioAssay AID652243, Drosophila RNAi Screening Center, 2013
The deposit covers about 24,000 reagents; below is an unselected part of those that have a named target and a result. Over the whole deposit, 246 (1%) are marked active. 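Plates not normalised; calls are printed but the firefly/Renilla ratio behind them is not deposited; fold cut for lowering reported inconsistently.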 The raw values are shown without normalisation. The numbers tell different reagents against one gene apart. No sequences are given here. Not stated in the record: the amount of reagent.

Assay: 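Knock-downs that decrease or increase androgen receptor reporter signal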 (primary screen)
System: Drosophila S2R+ cells
Reagents: long dsRNA against Drosophila genes
Time to read-out: 72 h (48 h, then 24 h hormone)
Conditions: synthetic androgen R1881 at 10 nM for 24 h
Read-out: 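Firefly light from an androgen-responsive reporter and Renilla control light per well, raw and unnormalised, for each of two replicates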
Direction: firefly reporter light: higher = more light from androgen-responsive reporter; Renilla control light: higher = more constitutive control signal (cell number, transfection)
Hit rule: 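Hit when the log firefly-to-Renilla ratio dropped or increased by a fixed fold versus the mean of GFP or LacZ controls across duplicate plates; lowering cut given as 1.5 and as 3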
Meaning of the calls: active = hit: reporter lowered or raised; inactive = no hit

Against Paics (PAICS bifunctional enzyme), the values are firefly reporter light, replicate 1 = 75343; firefly reporter light, replicate 2 = 71179; Renilla control light, replicate 1 = 5.52e5; Renilla control light, replicate 2 = 4.81e5; inactive. bug (bunker gear) showed firefly reporter light, replicate 1 = 1.66e6; firefly reporter light, replicate 2 = 9.15e5; Renilla control light, replicate 1 = 2.48e6; Renilla control light, replicate 2 = 1.12e6; inactive. Depletion of stac (staccato) #1 gave: firefly reporter light, replicate 1 = 88137; firefly reporter light, replicate 2 = 81624; Renilla control light, replicate 1 = 1.53e5; Renilla control light, replicate 2 = 2.07e5; inactive. Silencing of stac (staccato) #2 resulted in: firefly reporter light, replicate 1 = 1.57e5; firefly reporter light, replicate 2 = 2.12e5; Renilla control light, replicate 1 = 1.65e6; Renilla control light, replicate 2 = 1.60e6; inactive. Against stac (staccato) #3 the deposit lists firefly reporter light, replicate 1 = 4.44e5; firefly reporter light, replicate 2 = 4.33e5; Renilla control light, replicate 1 = 1.46e6; Renilla control light, replicate 2 = 1.07e6; inactive. With knock-down of stac (staccato) #4, the record shows firefly reporter light, replicate 1 = 3.81e5; firefly reporter light, replicate 2 = 4.65e5; Renilla control light, replicate 1 = 9.26e5; Renilla control light, replicate 2 = 1.50e6; inactive.

Depletion of ORMDL (Orosomucoid 1-like) #1 came out at: firefly reporter light, replicate 1 = 2.03e5; firefly reporter light, replicate 2 = 2.00e5; Renilla control light, replicate 1 = 2.07e6; Renilla control light, replicate 2 = 2.47e6; inactive. After knock-down of ORMDL (Orosomucoid 1-like) #2, the record shows firefly reporter light, replicate 1 = 2.17e5; firefly reporter light, replicate 2 = 2.30e5; Renilla control light, replicate 1 = 4.59e5; Renilla control light, replicate 2 = 7.57e5; inactive. CR13656 (pseudo) #1 gave firefly reporter light, replicate 1 = 52753; firefly reporter light, replicate 2 = 79303; Renilla control light, replicate 1 = 1.38e5; Renilla control light, replicate 2 = 1.16e5; inactive. Depletion of CR13656 (pseudo) #2 resulted in: firefly reporter light, replicate 1 = 2.21e5; firefly reporter light, replicate 2 = 2.20e5; Renilla control light, replicate 1 = 2.72e6; Renilla control light, replicate 2 = 2.76e6; inactive. For CG14120 #1, the entry reads firefly reporter light, replicate 1 = 2.07e5; firefly reporter light, replicate 2 = 2.36e5; Renilla control light, replicate 1 = 2.21e6; Renilla control light, replicate 2 = 1.97e6; inactive. With knock-down of CG14120 #2, the screen gave firefly reporter light, replicate 1 = 5.42e5; firefly reporter light, replicate 2 = 3.61e5; Renilla control light, replicate 1 = 3.06e6; Renilla control light, replicate 2 = 1.62e6; inactive.

Cyp9b2 (Cytochrome P450 9b2) #1 gave firefly reporter light, replicate 1 = 3.47e5; firefly reporter light, replicate 2 = 3.14e5; Renilla control light, replicate 1 = 1.38e6; Renilla control light, replicate 2 = 1.24e6; inactive. Against Cyp9b2 (Cytochrome P450 9b2) #2 the deposit lists firefly reporter light, replicate 1 = 4.95e5; firefly reporter light, replicate 2 = 4.12e5; Renilla control light, replicate 1 = 4.94e5; Renilla control light, replicate 2 = 4.60e5; inactive. With knock-down of Charon, the record shows firefly reporter light, replicate 1 = 9.06e5; firefly reporter light, replicate 2 = 7.16e5; Renilla control light, replicate 1 = 1.73e6; Renilla control light, replicate 2 = 1.15e6; inactive.

4 consecutive records from above, for reference:
CG14120 #2: firefly reporter light, replicate 1 = 5.42e5; firefly reporter light, replicate 2 = 3.61e5; Renilla control light, replicate 1 = 3.06e6; Renilla control light, replicate 2 = 1.62e6; activity call = inactive
Cyp9b2 (Cytochrome P450 9b2) #1: firefly reporter light, replicate 1 = 3.47e5; firefly reporter light, replicate 2 = 3.14e5; Renilla control light, replicate 1 = 1.38e6; Renilla control light, replicate 2 = 1.24e6; activity call = inactive
Cyp9b2 (Cytochrome P450 9b2) #2: firefly reporter light, replicate 1 = 4.95e5; firefly reporter light, replicate 2 = 4.12e5; Renilla control light, replicate 1 = 4.94e5; Renilla control light, replicate 2 = 4.60e5; activity call = inactive
Charon: firefly reporter light, replicate 1 = 9.06e5; firefly reporter light, replicate 2 = 7.16e5; Renilla control light, replicate 1 = 1.73e6; Renilla control light, replicate 2 = 1.15e6; activity call = inactive

The listing continues.
Silencing of Pal2 (Peptidyl-alpha-hydroxyglycine-alpha-amidating lyase 2) resulted in: firefly reporter light, replicate 1 = 2.42e5; firefly reporter light, replicate 2 = 2.70e5; Renilla control light, replicate 1 = 1.83e6; Renilla control light, replicate 2 = 1.97e6; inactive. Depletion of Gcn2 #1 came out at: firefly reporter light, replicate 1 = 69611; firefly reporter light, replicate 2 = 59539; Renilla control light, replicate 1 = 4.26e5; Renilla control light, replicate 2 = 3.89e5; inactive. Silencing of Gcn2 #2 resulted in: inactive. Knock-down of IntS9 (Integrator 9) #1 resulted in: firefly reporter light, replicate 1 = 27923; firefly reporter light, replicate 2 = 26177; Renilla control light, replicate 1 = 3.70e5; Renilla control light, replicate 2 = 3.00e5; inactive. IntS9 (Integrator 9) #2 showed firefly reporter light, replicate 1 = 5.50e5; firefly reporter light, replicate 2 = 4.17e5; Renilla control light, replicate 1 = 1.32e6; Renilla control light, replicate 2 = 1.35e6; inactive. After knock-down of ND-MLRQ (NADH dehydrogenase (ubiquinone) MLRQ subunit), the screen gave firefly reporter light, replicate 1 = 2.55e5; firefly reporter light, replicate 2 = 1.55e5; Renilla control light, replicate 1 = 5.42e5; Renilla control light, replicate 2 = 6.04e5; inactive.

Against ND-51 (NADH dehydrogenase (ubiquinone) 51 kDa subunit), the entry reads firefly reporter light, replicate 1 = 6.82e5; firefly reporter light, replicate 2 = 8.65e5; Renilla control light, replicate 1 = 1.69e6; Renilla control light, replicate 2 = 1.97e6; inactive. For CG31087 the deposit lists firefly reporter light, replicate 1 = 1.74e5; firefly reporter light, replicate 2 = 2.11e5; Renilla control light, replicate 1 = 2.17e6; Renilla control light, replicate 2 = 2.60e6; inactive. CG33771 showed firefly reporter light, replicate 1 = 4.70e5; firefly reporter light, replicate 2 = 3.86e5; Renilla control light, replicate 1 = 2.11e6; Renilla control light, replicate 2 = 3.28e6; inactive. BtbVII (BTB-protein-VII) #1 scored firefly reporter light, replicate 1 = 12960; firefly reporter light, replicate 2 = 10267; Renilla control light, replicate 1 = 4.38e5; Renilla control light, replicate 2 = 4.71e5; inactive. With knock-down of BtbVII (BTB-protein-VII) #2, the screen gave firefly reporter light, replicate 1 = 8.31e5; firefly reporter light, replicate 2 = 4.49e5; Renilla control light, replicate 1 = 1.49e6; Renilla control light, replicate 2 = 9.96e5; inactive. With knock-down of BtbVII (BTB-protein-VII) #3, the record shows firefly reporter light, replicate 1 = 1.08e6; firefly reporter light, replicate 2 = 1.14e6; Renilla control light, replicate 1 = 6.83e5; Renilla control light, replicate 2 = 7.19e5; inactive.
